PubChem BioAssay AID1259405, NCATS, 2018

- Assay: 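Silenced genes that increase secreted GFP made by CHO cells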 (primary screen)
- System: Chinese hamster CHO-K1 ovary cells with stable secreted eGFP expression
- Knock-down reagent: single siRNA against mouse genes, 0.8 pmol siRNA per well (2 µl of 400 nM stock)
- Time to read-out: 3 days
- Measurement: 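Percent of the per-plate non-targeting control median for intracellular GFP per well by laser scanning cytometry and for cell viability by ATP luminescence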
- Scale: GFP, % of control: higher = more GFP per well, higher productivity; viability (ATP), % of control: higher = more viable cells (more ATP)
- Hit rule: 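Called active when intracellular GFP, relative to negative control, is at or above 120%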
The deposit covers about 50,000 reagents; shown is a part drawn at random. About 4,000 of them (8%) were called active. 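Mouse siRNA library applied to hamster cells; one well for each siRNA.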 The numbers tell different reagents against one gene apart.

Knock-down of Slc9c1 (GeneID 208169) #1 came out at: GFP, % of control 98.9; viability (ATP), % of control 75.7; inactive. With knock-down of Slc9c1 (GeneID 208169) #2 the results were GFP, % of control 80.8; viability (ATP), % of control 53.2; inactive. Slc9c1 (GeneID 208169) #3 scored GFP, % of control 91.9; viability (ATP), % of control 82.7; inactive. Fabp7 (GeneID 12140) #1 gave GFP, % of control 124; viability (ATP), % of control 109; active. After knock-down of Fabp7 (GeneID 12140) #2 the results were GFP, % of control 64.4; viability (ATP), % of control 73.5; inactive. Fabp7 (GeneID 12140) #3 scored GFP, % of control 45.6; viability (ATP), % of control 59.2; inactive.

Knock-down of Syt6 (GeneID 54524) #1 resulted in: GFP, % of control 104; viability (ATP), % of control 88.5; inactive. After knock-down of Syt6 (GeneID 54524) #2, the record shows GFP, % of control 55.6; viability (ATP), % of control 59.3; inactive. After knock-down of Cldn1 (GeneID 12737) #1, the record shows GFP, % of control 96.6; viability (ATP), % of control 71.2; inactive. Against Cldn1 (GeneID 12737) #2 the deposit lists GFP, % of control 98.6; viability (ATP), % of control 96.7; inactive. After knock-down of Cldn1 (GeneID 12737) #3, the screen gave GFP, % of control 85.1; viability (ATP), % of control 83.9; inactive. After knock-down of Cox6c (GeneID 12864) #1, the screen gave GFP, % of control 117; viability (ATP), % of control 68; inactive.

Cox6c (GeneID 12864) #2 scored GFP, % of control 78.5; viability (ATP), % of control 72.5; inactive. After knock-down of Timm22 (GeneID 56322) #1, the screen gave GFP, % of control 96.2; viability (ATP), % of control 33.3; inactive. With knock-down of Timm22 (GeneID 56322) #2 the results were GFP, % of control 104; viability (ATP), % of control 98.8; inactive. After knock-down of Timm22 (GeneID 56322) #3 the results were GFP, % of control 85.7; viability (ATP), % of control 104; inactive. With knock-down of Prl2a1 (GeneID 56635) #1, the record shows GFP, % of control 64.8; viability (ATP), % of control 47.3; inactive. Knock-down of Prl2a1 (GeneID 56635) #2 resulted in: GFP, % of control 115; viability (ATP), % of control 81.9; inactive.

Depletion of Prl2a1 (GeneID 56635) #3 resulted in: GFP, % of control 67.8; viability (ATP), % of control 89.9; inactive. After knock-down of Nceh1 (GeneID 320024) #1 the results were GFP, % of control 89.4; viability (ATP), % of control 84.9; inactive. After knock-down of Nceh1 (GeneID 320024) #2, the record shows GFP, % of control 103; viability (ATP), % of control 57.5; inactive. After knock-down of Nceh1 (GeneID 320024) #3 the results were GFP, % of control 45.9; viability (ATP), % of control 51.2; inactive. After knock-down of Gipc3 (GeneID 209047) #1, the record shows GFP, % of control 250; viability (ATP), % of control 149; active. After knock-down of Gipc3 (GeneID 209047) #2, the screen gave GFP, % of control 57.5; viability (ATP), % of control 53.4; inactive.

Gipc3 (GeneID 209047) #3 gave GFP, % of control 69.2; viability (ATP), % of control 55; inactive. With knock-down of Hacl1 (GeneID 56794) #1, the record shows GFP, % of control 70.4; viability (ATP), % of control 74.9; inactive. Hacl1 (GeneID 56794) #2 gave GFP, % of control 108; viability (ATP), % of control 86.8; inactive. Against Hacl1 (GeneID 56794) #3, the entry reads GFP, % of control 74.9; viability (ATP), % of control 105; inactive. For Foxg1 (GeneID 15228) #1 the deposit lists GFP, % of control 59.6; viability (ATP), % of control 82.7; inactive. Depletion of Foxg1 (GeneID 15228) #2 came out at: GFP, % of control 80.7; viability (ATP), % of control 82.9; inactive.

Knock-down of Aspn (GeneID 66695) #1 resulted in: GFP, % of control 115; viability (ATP), % of control 87.4; inactive. With knock-down of Aspn (GeneID 66695) #2, the record shows GFP, % of control 91.7; viability (ATP), % of control 60.4; inactive. With knock-down of Aspn (GeneID 66695) #3 the results were GFP, % of control 111; viability (ATP), % of control 96.6; inactive. Eloc (GeneID 67923) #1 showed GFP, % of control 44.1; viability (ATP), % of control 55.1; inactive. Depletion of Eloc (GeneID 67923) #2 gave: GFP, % of control 68.9; viability (ATP), % of control 97.9; inactive. Eloc (GeneID 67923) #3 showed GFP, % of control 66.6; viability (ATP), % of control 54.4; inactive.

Depletion of Pheta1 (GeneID 231717) #1 came out at: GFP, % of control 40.4; viability (ATP), % of control 50.7; inactive. Against Pheta1 (GeneID 231717) #2, the entry reads GFP, % of control 49.1; viability (ATP), % of control 56.3; inactive. Silencing of Pheta1 (GeneID 231717) #3 resulted in: GFP, % of control 103; viability (ATP), % of control 102; inactive. After knock-down of Rab3gap1 (GeneID 226407) #1, the record shows GFP, % of control 50.8; viability (ATP), % of control 49.6; inactive. After knock-down of Rab3gap1 (GeneID 226407) #2 the results were GFP, % of control 81.8; viability (ATP), % of control 75.6; inactive. After knock-down of Rab3gap1 (GeneID 226407) #3, the record shows GFP, % of control 119; viability (ATP), % of control 106; inactive.

Silencing of Klf6 (GeneID 23849) #1 came out at: GFP, % of control 78.5; viability (ATP), % of control 72; inactive. After knock-down of Klf6 (GeneID 23849) #2 the results were GFP, % of control 62.7; viability (ATP), % of control 55.4; inactive. Silencing of Klf6 (GeneID 23849) #3 came out at: GFP, % of control 99.1; viability (ATP), % of control 101; inactive. Rsbn1 (GeneID 229675) #1 showed GFP, % of control 70.9; viability (ATP), % of control 77.8; inactive. After knock-down of Rsbn1 (GeneID 229675) #2, the record shows GFP, % of control 52.9; viability (ATP), % of control 68.3; inactive. Silencing of Rsbn1 (GeneID 229675) #3 resulted in: GFP, % of control 69.4; viability (ATP), % of control 80.3; inactive.

With knock-down of Sgms2 (GeneID 74442) #1, the record shows GFP, % of control 59.9; viability (ATP), % of control 56.6; inactive. For Sgms2 (GeneID 74442) #2, the entry reads GFP, % of control 96.5; viability (ATP), % of control 71.1; inactive. Sgms2 (GeneID 74442) #3 gave GFP, % of control 93.5; viability (ATP), % of control 72.6; inactive. Polb (GeneID 18970) #1 scored GFP, % of control 85.9; viability (ATP), % of control 93.1; inactive. Polb (GeneID 18970) #2 scored GFP, % of control 64.2; viability (ATP), % of control 69.7; inactive.

8 entries from above, reformatted.
{"gene":"Klf6 (GeneID 23849)","siRNA no.":2,"GFP, % of control":62.7,"viability (ATP), % of control":55.4,"Outcome":"inactive"}
{"gene":"Klf6 (GeneID 23849)","siRNA no.":3,"GFP, % of control":99.1,"viability (ATP), % of control":101,"Outcome":"inactive"}
{"gene":"Rsbn1 (GeneID 229675)","siRNA no.":1,"GFP, % of control":70.9,"viability (ATP), % of control":77.8,"Outcome":"inactive"}
{"gene":"Rsbn1 (GeneID 229675)","siRNA no.":2,"GFP, % of control":52.9,"viability (ATP), % of control":68.3,"Outcome":"inactive"}
{"gene":"Rsbn1 (GeneID 229675)","siRNA no.":3,"GFP, % of control":69.4,"viability (ATP), % of control":80.3,"Outcome":"inactive"}
{"gene":"Sgms2 (GeneID 74442)","siRNA no.":1,"GFP, % of control":59.9,"viability (ATP), % of control":56.6,"Outcome":"inactive"}
{"gene":"Sgms2 (GeneID 74442)","siRNA no.":2,"GFP, % of control":96.5,"viability (ATP), % of control":71.1,"Outcome":"inactive"}
{"gene":"Sgms2 (GeneID 74442)","siRNA no.":3,"GFP, % of control":93.5,"viability (ATP), % of control":72.6,"Outcome":"inactive"}
